These are yes or no findings as the source states them, for the method shown. Some results given as binding are weak or reduced against the parent protein; the word gives no strength.
Experiments:
[1] = target: cynomolgus FLT3 (cynomolgus); experiment: restated in Example 7; assay not named
[2] = target: cynomolgus FLT3 (cynomolgus); experiment: flow cytometry on FLT3-expressing cells

binding [1]: binds
binding [2]: binds
B1: NB1113 (antibody, V domains shown)
VH: EVQLLESGGGLVQPGGSLRLSCAPSGFTFSNYGMAWVRQAPGKGLEWVSSIHSGGGDTYYRDSVKGRFTISRDNSKNTLYLQMNSLRAEDTAVYYCARGRTPTGYYFDHWGQGTMVTVSS
VL: DIQMTQSPSSLSASVGDRVTITCRASEGIHSGLAWYQQKPGKVPKLLIYNANSLHSGVPSRFSGSGSGTDFTLTISSLQPEDVATYFCQQYYDYPLTFGQGTKLEIK
notes: Light chain variant (N31S in CDR-L1) of humanized NB1063 (VH1 x VL1); The constant regions are not restated for the humanized antibodies; the parent chimera NB1016 is human IgG4PAA (S228P, F234A, L235A) / human kappa; also called NB11113; N31S light chain variant of NB1063

Source: patent US20220025055A1 (Boehringer Ingelheim, published 2022)
